According to paper PMC5024327:
These are yes or no findings as the source states them, for the method shown. In cells and extracts the contact can be indirect. Binding calls can cover weak binding; strength is not graded here. Where a sequence is shown, tags or fusion partners need not be part of it.

The chains behind the UniProt entries cited, without tags or fusion partners. Where a name states a change or a piece, a line headed by the entry shows the natural chain unless it says otherwise.
UniProt Q61333: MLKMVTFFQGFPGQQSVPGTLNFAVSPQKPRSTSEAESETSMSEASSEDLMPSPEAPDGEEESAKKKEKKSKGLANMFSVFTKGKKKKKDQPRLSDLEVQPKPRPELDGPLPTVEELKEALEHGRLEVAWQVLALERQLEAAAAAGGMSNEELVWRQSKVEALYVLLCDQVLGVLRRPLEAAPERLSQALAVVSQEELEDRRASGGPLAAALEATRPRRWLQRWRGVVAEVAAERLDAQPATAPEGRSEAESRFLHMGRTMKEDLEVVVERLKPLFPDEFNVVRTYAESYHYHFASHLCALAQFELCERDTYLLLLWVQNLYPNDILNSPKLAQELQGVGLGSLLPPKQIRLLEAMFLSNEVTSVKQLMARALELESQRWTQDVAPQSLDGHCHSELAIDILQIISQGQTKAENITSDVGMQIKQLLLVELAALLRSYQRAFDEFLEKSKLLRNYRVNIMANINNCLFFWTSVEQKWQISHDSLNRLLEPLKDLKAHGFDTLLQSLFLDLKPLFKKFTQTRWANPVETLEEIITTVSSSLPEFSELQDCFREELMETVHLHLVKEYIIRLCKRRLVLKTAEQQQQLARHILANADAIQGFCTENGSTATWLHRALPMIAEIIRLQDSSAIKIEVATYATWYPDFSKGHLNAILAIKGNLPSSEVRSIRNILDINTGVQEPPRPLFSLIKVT

target: T1, GST-RalA (UniProt P11233); test: pull-down; 10 μg GST-RalA on GSH beads, loaded with 200 μM GTPγS or 1 mM GDP (or no nucleotide), incubated with HEK293A lysates at 4 °C for 2 hours; Western blot with anti-GFP and anti-Sec8; only the target purified
T1 sequence: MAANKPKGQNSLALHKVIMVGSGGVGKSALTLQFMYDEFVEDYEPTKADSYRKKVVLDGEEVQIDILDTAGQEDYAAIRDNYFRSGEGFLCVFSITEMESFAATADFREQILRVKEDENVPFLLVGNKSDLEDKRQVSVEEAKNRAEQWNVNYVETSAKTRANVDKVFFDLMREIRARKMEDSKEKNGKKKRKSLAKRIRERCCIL

| binding | Substance |
| --- | --- |
| binds | GFP-M-Sec (wild type, residues 1-650) (from UniProt Q61333) |
| no binding | GFP-M-Sec K531A/R532A/R533A/K537A (from UniProt Q61333) |
| no binding | GFP-M-Sec K470A/K474A (from UniProt Q61333) |
